From publication PMC5393397
No constants are given. Whether binding was seen depends on the method and setting. Binding seen in cells or lysates may run through a third protein. Some results given as binding are weak or reduced against the parent protein; the word gives no strength.

Chains of the proteins cited; added tags and fusions are not shown. Lines headed by an entry give the natural chain unless they say otherwise; changes in a name come on top.
UniProt P06730: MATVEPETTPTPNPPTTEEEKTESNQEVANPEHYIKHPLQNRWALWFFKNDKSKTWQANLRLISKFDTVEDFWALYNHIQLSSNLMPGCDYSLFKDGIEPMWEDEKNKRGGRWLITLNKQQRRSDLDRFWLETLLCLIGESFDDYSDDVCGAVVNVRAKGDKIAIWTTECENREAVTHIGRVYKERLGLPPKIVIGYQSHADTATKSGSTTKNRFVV
UniProt P63073: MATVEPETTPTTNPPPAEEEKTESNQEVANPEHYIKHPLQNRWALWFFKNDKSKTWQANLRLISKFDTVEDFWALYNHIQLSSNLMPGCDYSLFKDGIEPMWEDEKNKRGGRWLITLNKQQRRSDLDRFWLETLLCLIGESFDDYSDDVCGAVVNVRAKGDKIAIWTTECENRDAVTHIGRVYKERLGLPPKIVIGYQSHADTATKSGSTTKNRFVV
UniProt P11940: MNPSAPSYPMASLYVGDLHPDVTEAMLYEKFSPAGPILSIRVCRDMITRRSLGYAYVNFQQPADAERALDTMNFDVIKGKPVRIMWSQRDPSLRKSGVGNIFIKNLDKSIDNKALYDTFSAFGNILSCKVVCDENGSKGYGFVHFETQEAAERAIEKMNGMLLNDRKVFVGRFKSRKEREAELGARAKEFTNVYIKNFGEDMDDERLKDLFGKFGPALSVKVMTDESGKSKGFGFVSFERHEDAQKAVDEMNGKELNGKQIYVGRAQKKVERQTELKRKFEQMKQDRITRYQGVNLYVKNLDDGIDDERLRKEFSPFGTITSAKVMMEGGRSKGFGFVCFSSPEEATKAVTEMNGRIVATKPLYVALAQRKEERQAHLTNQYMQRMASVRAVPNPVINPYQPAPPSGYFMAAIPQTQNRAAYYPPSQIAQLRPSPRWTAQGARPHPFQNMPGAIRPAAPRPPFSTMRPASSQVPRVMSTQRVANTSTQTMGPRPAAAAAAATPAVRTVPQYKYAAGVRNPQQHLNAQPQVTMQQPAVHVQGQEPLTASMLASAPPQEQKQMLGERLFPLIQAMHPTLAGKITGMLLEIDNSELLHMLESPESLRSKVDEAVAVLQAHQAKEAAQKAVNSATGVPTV
UniProt O70194: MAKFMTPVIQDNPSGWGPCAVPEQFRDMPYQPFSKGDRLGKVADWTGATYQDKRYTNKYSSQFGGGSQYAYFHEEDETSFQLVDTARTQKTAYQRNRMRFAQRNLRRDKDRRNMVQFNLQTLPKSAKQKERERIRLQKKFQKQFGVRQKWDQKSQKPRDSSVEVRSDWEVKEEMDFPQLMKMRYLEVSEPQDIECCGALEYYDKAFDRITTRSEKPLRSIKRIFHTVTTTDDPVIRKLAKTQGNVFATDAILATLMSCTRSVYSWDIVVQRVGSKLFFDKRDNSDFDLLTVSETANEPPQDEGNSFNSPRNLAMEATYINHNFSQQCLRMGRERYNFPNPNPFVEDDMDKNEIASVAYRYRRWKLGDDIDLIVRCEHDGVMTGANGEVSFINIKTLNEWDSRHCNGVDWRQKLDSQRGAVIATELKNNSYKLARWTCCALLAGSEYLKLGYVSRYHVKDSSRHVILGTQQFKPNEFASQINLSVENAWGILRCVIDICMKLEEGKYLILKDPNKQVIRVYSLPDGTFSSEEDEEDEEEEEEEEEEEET
UniProt O15371: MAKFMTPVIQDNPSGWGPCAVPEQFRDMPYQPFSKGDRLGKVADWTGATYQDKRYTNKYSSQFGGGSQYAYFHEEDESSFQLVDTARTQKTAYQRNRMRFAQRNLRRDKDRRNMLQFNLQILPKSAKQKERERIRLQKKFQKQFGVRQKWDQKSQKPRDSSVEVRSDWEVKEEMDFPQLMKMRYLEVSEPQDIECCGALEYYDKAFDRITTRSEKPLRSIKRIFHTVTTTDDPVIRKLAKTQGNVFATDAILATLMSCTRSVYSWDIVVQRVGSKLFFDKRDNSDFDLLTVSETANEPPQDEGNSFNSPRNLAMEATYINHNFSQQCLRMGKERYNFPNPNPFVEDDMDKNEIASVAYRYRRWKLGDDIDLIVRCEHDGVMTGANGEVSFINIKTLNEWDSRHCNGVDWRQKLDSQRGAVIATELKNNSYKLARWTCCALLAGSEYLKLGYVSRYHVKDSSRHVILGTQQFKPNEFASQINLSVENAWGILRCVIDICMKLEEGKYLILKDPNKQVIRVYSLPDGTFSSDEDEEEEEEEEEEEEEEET
UniProt Q80XI3: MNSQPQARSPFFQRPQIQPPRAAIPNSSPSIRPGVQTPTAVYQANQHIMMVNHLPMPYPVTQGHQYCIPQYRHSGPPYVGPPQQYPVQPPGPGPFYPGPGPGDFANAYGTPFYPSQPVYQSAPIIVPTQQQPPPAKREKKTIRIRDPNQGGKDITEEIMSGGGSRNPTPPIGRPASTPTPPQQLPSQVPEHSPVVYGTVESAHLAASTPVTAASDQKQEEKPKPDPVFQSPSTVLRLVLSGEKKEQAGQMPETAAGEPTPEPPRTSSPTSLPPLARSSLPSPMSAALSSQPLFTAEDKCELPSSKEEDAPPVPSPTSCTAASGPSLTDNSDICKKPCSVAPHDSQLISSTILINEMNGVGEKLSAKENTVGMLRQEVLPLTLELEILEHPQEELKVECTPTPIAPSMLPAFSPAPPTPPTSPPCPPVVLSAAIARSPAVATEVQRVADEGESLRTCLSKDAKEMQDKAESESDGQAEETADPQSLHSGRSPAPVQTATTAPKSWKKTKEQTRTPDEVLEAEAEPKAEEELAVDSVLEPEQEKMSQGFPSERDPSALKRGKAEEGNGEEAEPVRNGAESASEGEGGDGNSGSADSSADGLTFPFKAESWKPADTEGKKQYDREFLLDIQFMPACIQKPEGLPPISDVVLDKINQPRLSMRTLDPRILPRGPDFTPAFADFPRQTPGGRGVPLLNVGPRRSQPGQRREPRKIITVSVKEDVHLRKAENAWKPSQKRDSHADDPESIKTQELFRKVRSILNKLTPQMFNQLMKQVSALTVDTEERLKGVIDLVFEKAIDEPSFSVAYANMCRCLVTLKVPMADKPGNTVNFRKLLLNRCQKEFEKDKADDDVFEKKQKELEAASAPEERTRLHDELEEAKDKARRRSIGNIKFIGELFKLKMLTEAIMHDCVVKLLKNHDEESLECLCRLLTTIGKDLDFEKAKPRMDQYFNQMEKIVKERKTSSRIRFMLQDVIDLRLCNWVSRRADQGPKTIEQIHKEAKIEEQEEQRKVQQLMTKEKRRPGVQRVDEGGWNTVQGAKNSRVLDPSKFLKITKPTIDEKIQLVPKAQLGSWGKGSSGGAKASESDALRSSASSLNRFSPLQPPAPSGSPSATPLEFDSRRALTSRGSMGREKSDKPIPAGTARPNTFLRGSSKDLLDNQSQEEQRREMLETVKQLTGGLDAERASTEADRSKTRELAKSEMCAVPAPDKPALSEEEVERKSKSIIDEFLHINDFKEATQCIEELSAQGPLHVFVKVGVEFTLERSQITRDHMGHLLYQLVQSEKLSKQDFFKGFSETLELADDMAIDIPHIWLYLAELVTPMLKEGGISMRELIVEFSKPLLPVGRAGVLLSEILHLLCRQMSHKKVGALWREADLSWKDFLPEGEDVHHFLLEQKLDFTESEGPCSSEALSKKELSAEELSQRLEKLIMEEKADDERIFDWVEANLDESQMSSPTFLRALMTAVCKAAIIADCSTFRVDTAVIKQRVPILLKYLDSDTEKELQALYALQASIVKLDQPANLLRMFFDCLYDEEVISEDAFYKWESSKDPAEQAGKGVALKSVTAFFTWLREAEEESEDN

Columns and labels:
[1] = biological target: eIF4E of the cells in which NS6 cleaved PABP (Fig. S5D) (UniProt P06730); assay: pull-down; enrichment of the eIF4F complex on m7GTP-Sepharose from cells in which NS6 cleaved PABP, blot (Fig. S5D); cells not given
[2] = biological target: eukaryotic initiation factor 4E (eIF4E), cap-binding protein (mouse (endogenous in BV-2)) (UniProt P63073); assay: pull-down; m7GTP-Sepharose enrichment of eIF4E-containing complexes from lysates of mock or MNV-infected cells (BV-2 for Fig. 4C; cells of Fig. S3E not named), Western blot

| Substance | binding [1] | binding [2] |
| --- | --- | --- |
| N-terminal cleavage products of PABP (NS6 cleavage) (from UniProt P11940 1-440) (domain or fragment) | binds |  |
| eIF3D (from UniProt O70194 1-548) |  | binds |
| eIF3D of the cells in which NS6 cleaved PABP (Fig. S5D) (from UniProt O15371 1-548) | binds |  |
| eIF4GII (eIF4G3), the ~170 kDa long form (from UniProt Q80XI3 1-1579) |  | binds |
| full length PABP (Fig. S5D) (from UniProt P11940 1-636) | binds |  |
